Weaker means in comparison with the reference protein, sequence or condition of that experiment. Where a protein sequence is shown, tags need not be part of it.
Legend:
[1] = target: T1, RC3H1-N2 (RING+ROQ+CCCH Zn finger) (Homo sapiens) (UniProt Q5TC82); assay: EMSA; conditions: EMSA: 20 mM Tris-HCl pH 7.5, 50 mM KCl, 5 mM MgCl2, 20 uM ZnSO4, 10% glycerol, 2 mM DTT, 0.05 mg/ml BSA, 5 ug/ml heparin, 50 fmol RNA in 20 ul, room temperature, recombinant protein, residues 2-452, protein details: N-terminal His7, TEV-cleaved
T1 sequence (looked up): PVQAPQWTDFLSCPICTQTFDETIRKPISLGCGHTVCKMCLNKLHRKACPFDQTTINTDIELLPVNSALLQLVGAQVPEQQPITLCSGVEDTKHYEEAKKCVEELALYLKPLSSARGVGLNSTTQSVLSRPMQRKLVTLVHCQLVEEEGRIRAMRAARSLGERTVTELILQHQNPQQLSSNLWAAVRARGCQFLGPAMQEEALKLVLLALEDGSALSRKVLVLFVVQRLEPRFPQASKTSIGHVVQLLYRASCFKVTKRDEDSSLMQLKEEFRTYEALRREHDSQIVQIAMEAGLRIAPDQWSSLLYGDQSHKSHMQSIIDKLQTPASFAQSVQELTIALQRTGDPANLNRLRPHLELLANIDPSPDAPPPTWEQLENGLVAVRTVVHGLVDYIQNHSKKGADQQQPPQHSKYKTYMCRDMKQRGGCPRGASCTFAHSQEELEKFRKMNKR

[2] = target: T2, RC3H1-N1 (RING+ROQ) (Homo sapiens) (UniProt Q5TC82); assay: EMSA; conditions: lower affinity than RC3H1-N2; EMSA: 20 mM Tris-HCl pH 7.5, 50 mM KCl, 5 mM MgCl2, 20 uM ZnSO4, 10% glycerol, 2 mM DTT, 0.05 mg/ml BSA, 5 ug/ml heparin; 50 fmol RNA in 20 ul, room temperature; recombinant protein; residues 2-399; protein details: N-terminal His7, TEV-cleaved; label: 5'-32P
T2 sequence (looked up): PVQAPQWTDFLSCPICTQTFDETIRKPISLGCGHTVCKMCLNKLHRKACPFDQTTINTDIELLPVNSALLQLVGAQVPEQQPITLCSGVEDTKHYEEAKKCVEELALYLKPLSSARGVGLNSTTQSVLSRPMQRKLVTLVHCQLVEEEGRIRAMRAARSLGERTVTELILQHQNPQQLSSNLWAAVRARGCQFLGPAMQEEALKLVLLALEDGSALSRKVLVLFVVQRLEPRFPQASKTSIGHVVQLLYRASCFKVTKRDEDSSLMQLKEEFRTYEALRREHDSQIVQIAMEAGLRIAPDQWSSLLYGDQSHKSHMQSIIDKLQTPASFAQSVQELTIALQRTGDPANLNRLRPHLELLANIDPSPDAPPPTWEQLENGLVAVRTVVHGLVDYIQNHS

Sequence: AUAUAUAAUAUACCCUUACAUUAUGUAUGAGGGAUUU / AAATCCCTCATACATAAT [A20 (37 nt) + antisense LNA]
- binding result ([1]; increasing antisense LNA oligonucleotide, LNA in strand 2: +AA+AT+CC+CT+CA+TA+CA+TAA+T (+ = next residue is LNA), label: 5'-32P on RNA): binds more weakly

Sequence: CCCUUACAUUAUGUAUGAGGG [A20 (21 nt) stem-loop WT]
- binding result [2]: binds more weakly

Sequence: CCCUUACAAAAAGUAUGAGGG [Mut2 (21 nt)]
- binding result ([1]; slight reduction vs WT, label: 5'-32P): binds more weakly

— PMC4510711
